# In the supplement of paper PMC9135407:
# Several values for one entry are separate records, joined by “and”; a condition that tells them apart may be missing. Equal values may be shown once. Where a name gives a salt, the structure may show the parent alone. ± gives the standard deviation of the averaged measurements. This is one part of the list. Part of the spread comes from offsets between plates or batches.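 Assay uses culture-activated primary human stellate myofibroblasts; lipid droplet recovery indicates inactivation. Measured: proportion of Hoechst-counted cells over a plate-specific Bodipy cutoff, duplicate wells, DMSO and nortriptyline as per-plate negative and positive controls. A hit scores, control-normalized, above the plate's top-tenth-percentile nortriptyline wells or ranks among its three best wells. Final well concentrations not reported.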
# Test system: primary human hepatic stellate cells (donor 1)
# Test: percent Bodipy-positive cells; higher = more lipid droplet accumulation
# Conditions: 48 h
# [1] = library stock concentration: 10 mM
# [2] = library stock concentration: 3.33 mM
# [3] = library stock concentration: 80 uM
# [4] = library stock concentration: 400 uM
# [5] = library stock concentration: 2 mM
# [6] = library stock concentration: 1 mM
smiles,measurement,setting,value
CCOC(=O)CCC(=O)O[C@H]1[C@H](O[C@@H]2[C@@H](C)[C@H](O[C@H]3C[C@@](C)(OC)[C@@H](O)[C@H](C)O3)[C@@H](C)C(=O)O[C@H](CC)[C@@](C)(O)[C@H](O)[C@@H](C)C(=O)[C@H](C)C[C@@]2(C)O)O[C@H](C)C[C@@H]1N(C)C [Eryped],percent Bodipy-positive cells,[1],33.5 ± 4.9%
COc1cc(NC(=O)c2ccc(-c3ccc(Cl)cc3)o2)cc(OC)c1,percent Bodipy-positive cells,[2],14.9 ± 6.6%
same,percent Bodipy-positive cells,[1],49.5 ± 4.5%
CC(C)C(=O)Nc1ncc(-c2cc(C(F)F)nn2-c2c(Cl)cccc2Cl)s1,percent Bodipy-positive cells,[1],86.8 ± 6.6%
Nc1ncnc2nc(-c3ccc(N4CCOCC4)nc3)cc(-c3cccc(Br)c3)c12,percent Bodipy-positive cells,[3],13.3 ± 0.18%
same,percent Bodipy-positive cells,[4],18.5 ± 2.9%
same,percent Bodipy-positive cells,[5],13 ± 0.53%
Nc1ncnc2nc(-c3ccc(N4CCOCC4)nc3)cc(-c3cccc(Br)c3)c12 [ABT 702 dihydrochloride],percent Bodipy-positive cells,[1],27.5 ± 5.2%
c1ccc2c(Oc3nc(Nc4ccc(N5CCOCC5)cc4)c4ncn(C5CCCCC5)c4n3)cccc2c1 [Purmorphamine],percent Bodipy-positive cells,[6],13.3 ± 4.3%
same,percent Bodipy-positive cells,[2],7.06 ± 5.7%
same,percent Bodipy-positive cells,[1],10.7 ± 3.8%
C[C@]12C=CC(=O)C=C1CC[C@@H]1[C@@H]2C(=O)C[C@@]2(C)[C@H]1CC[C@]2(O)C(=O)CO [Prednisone],percent Bodipy-positive cells,,28.7 ± 9.4%
same,percent Bodipy-positive cells,[2],8.47 ± 0.45%
same,percent Bodipy-positive cells,[1],9.34% and 14.9% and 31.3%
C=CCn1c(=O)n([C@@H]2O[C@H](CO)[C@@H](O)[C@H]2O)c2nc(N)[nH]c(=O)c21,percent Bodipy-positive cells,[1],4.91 ± 0.15%
C[C@]12C=CC(=O)C=C1CC[C@@H]1C2=CC[C@]2(C)[C@@H](C(=O)CN3CCN(c4cc(N5CCCC5)nc(N5CCCC5)n4)CC3)CC[C@@H]12,percent Bodipy-positive cells,[1],32.5 ± 7.2%
COc1cc2nccc(Oc3ccc(NC(=O)Nc4ccc(F)cc4F)c(F)c3)c2cc1OC,percent Bodipy-positive cells,[2],51.2 ± 10%
CN1CCN(C2=Nc3ccccc3Sc3ccc(Cl)cc32)CC1 [Clothiapine],percent Bodipy-positive cells,library stock concentration: 5.8 mM,37.2 ± 4.5%
CC1(C)[C@@H](O[C@H]2O[C@H](C(=O)O)[C@@H](O)[C@H](O)[C@H]2O[C@@H]2O[C@H](C(=O)O)[C@@H](O)[C@H](O)[C@H]2O)CC[C@]2(C)[C@H]3C(=O)C=C4[C@@H]5C[C@@](C)(C(=O)O)CC[C@]5(C)CC[C@@]4(C)[C@]3(C)CC[C@@H]12 [Ammonium Glycyrrhizinate],percent Bodipy-positive cells,[2],5.87 ± 3%
same,percent Bodipy-positive cells,[1],21.8 ± 6.5%
CNc1cc(NS(=O)(=O)c2ccc(N)cc2)nc(NC)n1 [Ro 04-6790 dihydrochloride],percent Bodipy-positive cells,[1],9.69 ± 1%
Oc1ccc(Nc2nc(-c3ccc(Cl)cc3)cs2)cc1 [Sphingosine Kinase Inhibitor 2],percent Bodipy-positive cells,[6],4.96 ± 0.32%
Oc1ccc(Nc2nc(-c3ccc(Cl)cc3)cs2)cc1,percent Bodipy-positive cells,[3],13.6 ± 1.6%
same,percent Bodipy-positive cells,[4],19.2 ± 16%
same,percent Bodipy-positive cells,[5],6.78 ± 3.2%
same,percent Bodipy-positive cells,[2],17.3 ± 1.1%
same,percent Bodipy-positive cells,[1],11.4% and 5.48%
NC(=O)c1c(NC(=O)C2CC2)sc2c1CCCC2,percent Bodipy-positive cells,[3],19 ± 9.1%
same,percent Bodipy-positive cells,[4],14.8 ± 4.7%
same,percent Bodipy-positive cells,[5],17.9 ± 6.5%
same,percent Bodipy-positive cells,[1],20.9 ± 1.6%
Cc1ccc(C(=O)NCCCCCC(=O)Nc2ccccc2N)cc1,percent Bodipy-positive cells,[2],36.8 ± 8.2%
same,percent Bodipy-positive cells,[1],83.2 ± 2.6%
"CCCCC(C)CC(O)/C=C/C1C(O)CC(O)C1CCCCCCC(=O)O (stereo not drawn) [17,20-dimethyl Prostaglandin F1.alpha.]",percent Bodipy-positive cells,[6],8.05 ± 0.17%
N#Cc1ccc2[nH]c(O)c(-c3ccc(CN4CCOCC4)cn3)c2c1,percent Bodipy-positive cells,[2],85.5 ± 1.1%
same,percent Bodipy-positive cells,[1],91.11 ± 0.41%
NS(=O)(=O)c1ccc(C(=O)O)cc1,percent Bodipy-positive cells,[1],34.2 ± 5.4%
n(c1N)c(N(CC)C(C)C)c(nc1C(=O)\N=C(\N)/N)Cl [5-(N-Ethyl-N-isopropyl)amiloride],percent Bodipy-positive cells,[1],98.6 ± 1.6%
"CCCCCCCCCCCCC/C=C/[C@@H](O)[C@H](CO)N(C)C [N,N-Dimethylsphingosine]",percent Bodipy-positive cells,[6],23.8 ± 2.6%
COc1cc2ncnc(Nc3ccc(Cl)cc3F)c2cc1OC,percent Bodipy-positive cells,[2],12.2 ± 2.4%
same,percent Bodipy-positive cells,[1],20.6% and 9.25%
Nc1nc2ccc(Cl)cc2n2c(-c3ccccc3)nnc12,percent Bodipy-positive cells,[1],42.7 ± 1.9%
N[C@@H]1CCCN(c2c(/C=C3\SC(=O)NC3=O)cccc2-c2ccccc2)C1,percent Bodipy-positive cells,[3],8.87 ± 8.3%
same,percent Bodipy-positive cells,[4],6.1 ± 0.8%
same,percent Bodipy-positive cells,[5],7.97 ± 0.48%
same,percent Bodipy-positive cells,[2],41.8 ± 1.8%
same,percent Bodipy-positive cells,[1],53.7% and 35.1%
CCN(CC)CCn1c(=O)c(Cc2ccc(OC)cc2)nc2ccccc21 [Caroverine hydrochloride],percent Bodipy-positive cells,[1],45.2 ± 7.2%
Cc1cccc(CCN2CCC(C(=O)c3ccc(NS(C)(=O)=O)cc3)CC2)n1,percent Bodipy-positive cells,library stock concentration: 9.9 mM,7.199 ± 0.053%
Cc1cccc(CCN2CCC(C(=O)c3ccc(NS(C)(=O)=O)cc3)CC2)n1 [E-4031 dihydrochloride],percent Bodipy-positive cells,[1],9.97 ± 2.2%
CS(=O)(=O)c1ccc([C@H](O)[C@@H](COC(=O)CN)NC(=O)C(Cl)Cl)cc1 [Thiamphenicol glycinate],percent Bodipy-positive cells,library stock concentration: 4.8 mM,8.54 ± 0.5%
CO[C@H]1C[C@@H]2CC[C@@H](C)[C@@](O)(O2)C(=O)C(=O)N2CCCC[C@H]2C(=O)O[C@H]([C@H](C)C[C@@H]2CC[C@@H](O)[C@H](OC)C2)CC(=O)[C@H](C)/C=C(\C)[C@@H](O)[C@@H](OC)C(=O)[C@H](C)C[C@H](C)/C=C/C=C/C=C/1C [Rapamycin (Sirolimus)],percent Bodipy-positive cells,[2],5.28 ± 0.52%
same,percent Bodipy-positive cells,[1],13.93 ± 0.12%
CO[C@H]1C[C@@H]2CC[C@@H](C)[C@@](O)(O2)C(=O)C(=O)N2CCCC[C@H]2C(=O)O[C@H]([C@H](C)C[C@@H]2CC[C@@H](O)[C@H](OC)C2)CC(=O)[C@H](C)/C=C(\C)[C@@H](O)[C@@H](OC)C(=O)[C@H](C)C[C@H](C)/C=C/C=C/C=C/1C [Rapamycin],percent Bodipy-positive cells,[3],11.1 ± 9.1%
same,percent Bodipy-positive cells,[4],8.57 ± 1.9%
same,percent Bodipy-positive cells,[6],5.65 ± 0.99%
same,percent Bodipy-positive cells,[5],8.44 ± 0.54%
same,percent Bodipy-positive cells,[2],6.67 ± 0.56%
same,percent Bodipy-positive cells,[1],14.9 ± 2.9%

# Fetched one by one from above, four records:
smiles,measurement,setting,value
N[C@@H]1CCCN(c2c(/C=C3\SC(=O)NC3=O)cccc2-c2ccccc2)C1,percent Bodipy-positive cells,[5],7.97 ± 0.48%
C[C@]12C=CC(=O)C=C1CC[C@@H]1[C@@H]2C(=O)C[C@@]2(C)[C@H]1CC[C@]2(O)C(=O)CO [Prednisone],percent Bodipy-positive cells,[1],9.34% and 14.9% and 31.3%
CCN(CC)CCn1c(=O)c(Cc2ccc(OC)cc2)nc2ccccc21 [Caroverine hydrochloride],percent Bodipy-positive cells,[1],45.2 ± 7.2%
Nc1nc2ccc(Cl)cc2n2c(-c3ccccc3)nnc12,percent Bodipy-positive cells,[1],42.7 ± 1.9%
